No constants are given. Whether binding was seen depends on the method and setting. In cells and extracts the contact can be indirect. A yes stands for co-enrichment or nearness to the bait. Other partners may have been found. Where a sequence is shown, tags or fusion partners need not be part of it.
Target: T1, NLR family pyrin domain containing 4 (mouse NLRP4, Nlrp4e), 3xFLAG-tagged (mouse) (UniProt Q66X19)
T1 sequence: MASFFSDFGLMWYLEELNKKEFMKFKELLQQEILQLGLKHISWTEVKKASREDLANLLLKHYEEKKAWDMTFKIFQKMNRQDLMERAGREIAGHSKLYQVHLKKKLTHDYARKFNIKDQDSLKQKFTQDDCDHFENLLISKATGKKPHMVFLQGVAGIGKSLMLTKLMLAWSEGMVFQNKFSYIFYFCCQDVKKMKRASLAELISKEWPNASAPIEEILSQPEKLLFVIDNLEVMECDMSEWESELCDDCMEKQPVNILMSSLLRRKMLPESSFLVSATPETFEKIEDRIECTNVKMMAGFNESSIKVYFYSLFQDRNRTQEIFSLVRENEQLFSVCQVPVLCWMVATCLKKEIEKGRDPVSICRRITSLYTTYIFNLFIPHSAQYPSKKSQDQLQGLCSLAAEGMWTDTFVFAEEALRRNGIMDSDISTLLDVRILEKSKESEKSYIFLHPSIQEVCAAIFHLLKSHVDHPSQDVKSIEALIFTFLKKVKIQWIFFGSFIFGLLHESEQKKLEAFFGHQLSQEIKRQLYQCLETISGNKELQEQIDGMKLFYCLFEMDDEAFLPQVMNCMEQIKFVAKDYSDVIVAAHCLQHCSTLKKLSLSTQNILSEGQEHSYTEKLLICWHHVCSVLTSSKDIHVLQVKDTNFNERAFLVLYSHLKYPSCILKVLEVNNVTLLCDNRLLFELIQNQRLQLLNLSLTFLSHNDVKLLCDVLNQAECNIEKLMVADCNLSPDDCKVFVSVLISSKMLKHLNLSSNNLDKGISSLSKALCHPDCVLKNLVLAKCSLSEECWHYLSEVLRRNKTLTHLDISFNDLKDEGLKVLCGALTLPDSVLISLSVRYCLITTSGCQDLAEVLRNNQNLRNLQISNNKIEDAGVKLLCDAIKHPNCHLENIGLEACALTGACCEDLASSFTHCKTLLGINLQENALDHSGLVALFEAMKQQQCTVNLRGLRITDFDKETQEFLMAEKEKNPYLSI
Experiment: affinity purification with mass spectrometry; flag antibody incubated with 4 mg lysate of LLC OE cells overnight at 4 °C, Protein A/G magnetic beads, RIPA buffer, eluted in SDS loading buffer, SDS-PAGE, LC-MS/MS

The chains behind the UniProt entries cited, without tags or fusion partners.
UniProt E9Q616: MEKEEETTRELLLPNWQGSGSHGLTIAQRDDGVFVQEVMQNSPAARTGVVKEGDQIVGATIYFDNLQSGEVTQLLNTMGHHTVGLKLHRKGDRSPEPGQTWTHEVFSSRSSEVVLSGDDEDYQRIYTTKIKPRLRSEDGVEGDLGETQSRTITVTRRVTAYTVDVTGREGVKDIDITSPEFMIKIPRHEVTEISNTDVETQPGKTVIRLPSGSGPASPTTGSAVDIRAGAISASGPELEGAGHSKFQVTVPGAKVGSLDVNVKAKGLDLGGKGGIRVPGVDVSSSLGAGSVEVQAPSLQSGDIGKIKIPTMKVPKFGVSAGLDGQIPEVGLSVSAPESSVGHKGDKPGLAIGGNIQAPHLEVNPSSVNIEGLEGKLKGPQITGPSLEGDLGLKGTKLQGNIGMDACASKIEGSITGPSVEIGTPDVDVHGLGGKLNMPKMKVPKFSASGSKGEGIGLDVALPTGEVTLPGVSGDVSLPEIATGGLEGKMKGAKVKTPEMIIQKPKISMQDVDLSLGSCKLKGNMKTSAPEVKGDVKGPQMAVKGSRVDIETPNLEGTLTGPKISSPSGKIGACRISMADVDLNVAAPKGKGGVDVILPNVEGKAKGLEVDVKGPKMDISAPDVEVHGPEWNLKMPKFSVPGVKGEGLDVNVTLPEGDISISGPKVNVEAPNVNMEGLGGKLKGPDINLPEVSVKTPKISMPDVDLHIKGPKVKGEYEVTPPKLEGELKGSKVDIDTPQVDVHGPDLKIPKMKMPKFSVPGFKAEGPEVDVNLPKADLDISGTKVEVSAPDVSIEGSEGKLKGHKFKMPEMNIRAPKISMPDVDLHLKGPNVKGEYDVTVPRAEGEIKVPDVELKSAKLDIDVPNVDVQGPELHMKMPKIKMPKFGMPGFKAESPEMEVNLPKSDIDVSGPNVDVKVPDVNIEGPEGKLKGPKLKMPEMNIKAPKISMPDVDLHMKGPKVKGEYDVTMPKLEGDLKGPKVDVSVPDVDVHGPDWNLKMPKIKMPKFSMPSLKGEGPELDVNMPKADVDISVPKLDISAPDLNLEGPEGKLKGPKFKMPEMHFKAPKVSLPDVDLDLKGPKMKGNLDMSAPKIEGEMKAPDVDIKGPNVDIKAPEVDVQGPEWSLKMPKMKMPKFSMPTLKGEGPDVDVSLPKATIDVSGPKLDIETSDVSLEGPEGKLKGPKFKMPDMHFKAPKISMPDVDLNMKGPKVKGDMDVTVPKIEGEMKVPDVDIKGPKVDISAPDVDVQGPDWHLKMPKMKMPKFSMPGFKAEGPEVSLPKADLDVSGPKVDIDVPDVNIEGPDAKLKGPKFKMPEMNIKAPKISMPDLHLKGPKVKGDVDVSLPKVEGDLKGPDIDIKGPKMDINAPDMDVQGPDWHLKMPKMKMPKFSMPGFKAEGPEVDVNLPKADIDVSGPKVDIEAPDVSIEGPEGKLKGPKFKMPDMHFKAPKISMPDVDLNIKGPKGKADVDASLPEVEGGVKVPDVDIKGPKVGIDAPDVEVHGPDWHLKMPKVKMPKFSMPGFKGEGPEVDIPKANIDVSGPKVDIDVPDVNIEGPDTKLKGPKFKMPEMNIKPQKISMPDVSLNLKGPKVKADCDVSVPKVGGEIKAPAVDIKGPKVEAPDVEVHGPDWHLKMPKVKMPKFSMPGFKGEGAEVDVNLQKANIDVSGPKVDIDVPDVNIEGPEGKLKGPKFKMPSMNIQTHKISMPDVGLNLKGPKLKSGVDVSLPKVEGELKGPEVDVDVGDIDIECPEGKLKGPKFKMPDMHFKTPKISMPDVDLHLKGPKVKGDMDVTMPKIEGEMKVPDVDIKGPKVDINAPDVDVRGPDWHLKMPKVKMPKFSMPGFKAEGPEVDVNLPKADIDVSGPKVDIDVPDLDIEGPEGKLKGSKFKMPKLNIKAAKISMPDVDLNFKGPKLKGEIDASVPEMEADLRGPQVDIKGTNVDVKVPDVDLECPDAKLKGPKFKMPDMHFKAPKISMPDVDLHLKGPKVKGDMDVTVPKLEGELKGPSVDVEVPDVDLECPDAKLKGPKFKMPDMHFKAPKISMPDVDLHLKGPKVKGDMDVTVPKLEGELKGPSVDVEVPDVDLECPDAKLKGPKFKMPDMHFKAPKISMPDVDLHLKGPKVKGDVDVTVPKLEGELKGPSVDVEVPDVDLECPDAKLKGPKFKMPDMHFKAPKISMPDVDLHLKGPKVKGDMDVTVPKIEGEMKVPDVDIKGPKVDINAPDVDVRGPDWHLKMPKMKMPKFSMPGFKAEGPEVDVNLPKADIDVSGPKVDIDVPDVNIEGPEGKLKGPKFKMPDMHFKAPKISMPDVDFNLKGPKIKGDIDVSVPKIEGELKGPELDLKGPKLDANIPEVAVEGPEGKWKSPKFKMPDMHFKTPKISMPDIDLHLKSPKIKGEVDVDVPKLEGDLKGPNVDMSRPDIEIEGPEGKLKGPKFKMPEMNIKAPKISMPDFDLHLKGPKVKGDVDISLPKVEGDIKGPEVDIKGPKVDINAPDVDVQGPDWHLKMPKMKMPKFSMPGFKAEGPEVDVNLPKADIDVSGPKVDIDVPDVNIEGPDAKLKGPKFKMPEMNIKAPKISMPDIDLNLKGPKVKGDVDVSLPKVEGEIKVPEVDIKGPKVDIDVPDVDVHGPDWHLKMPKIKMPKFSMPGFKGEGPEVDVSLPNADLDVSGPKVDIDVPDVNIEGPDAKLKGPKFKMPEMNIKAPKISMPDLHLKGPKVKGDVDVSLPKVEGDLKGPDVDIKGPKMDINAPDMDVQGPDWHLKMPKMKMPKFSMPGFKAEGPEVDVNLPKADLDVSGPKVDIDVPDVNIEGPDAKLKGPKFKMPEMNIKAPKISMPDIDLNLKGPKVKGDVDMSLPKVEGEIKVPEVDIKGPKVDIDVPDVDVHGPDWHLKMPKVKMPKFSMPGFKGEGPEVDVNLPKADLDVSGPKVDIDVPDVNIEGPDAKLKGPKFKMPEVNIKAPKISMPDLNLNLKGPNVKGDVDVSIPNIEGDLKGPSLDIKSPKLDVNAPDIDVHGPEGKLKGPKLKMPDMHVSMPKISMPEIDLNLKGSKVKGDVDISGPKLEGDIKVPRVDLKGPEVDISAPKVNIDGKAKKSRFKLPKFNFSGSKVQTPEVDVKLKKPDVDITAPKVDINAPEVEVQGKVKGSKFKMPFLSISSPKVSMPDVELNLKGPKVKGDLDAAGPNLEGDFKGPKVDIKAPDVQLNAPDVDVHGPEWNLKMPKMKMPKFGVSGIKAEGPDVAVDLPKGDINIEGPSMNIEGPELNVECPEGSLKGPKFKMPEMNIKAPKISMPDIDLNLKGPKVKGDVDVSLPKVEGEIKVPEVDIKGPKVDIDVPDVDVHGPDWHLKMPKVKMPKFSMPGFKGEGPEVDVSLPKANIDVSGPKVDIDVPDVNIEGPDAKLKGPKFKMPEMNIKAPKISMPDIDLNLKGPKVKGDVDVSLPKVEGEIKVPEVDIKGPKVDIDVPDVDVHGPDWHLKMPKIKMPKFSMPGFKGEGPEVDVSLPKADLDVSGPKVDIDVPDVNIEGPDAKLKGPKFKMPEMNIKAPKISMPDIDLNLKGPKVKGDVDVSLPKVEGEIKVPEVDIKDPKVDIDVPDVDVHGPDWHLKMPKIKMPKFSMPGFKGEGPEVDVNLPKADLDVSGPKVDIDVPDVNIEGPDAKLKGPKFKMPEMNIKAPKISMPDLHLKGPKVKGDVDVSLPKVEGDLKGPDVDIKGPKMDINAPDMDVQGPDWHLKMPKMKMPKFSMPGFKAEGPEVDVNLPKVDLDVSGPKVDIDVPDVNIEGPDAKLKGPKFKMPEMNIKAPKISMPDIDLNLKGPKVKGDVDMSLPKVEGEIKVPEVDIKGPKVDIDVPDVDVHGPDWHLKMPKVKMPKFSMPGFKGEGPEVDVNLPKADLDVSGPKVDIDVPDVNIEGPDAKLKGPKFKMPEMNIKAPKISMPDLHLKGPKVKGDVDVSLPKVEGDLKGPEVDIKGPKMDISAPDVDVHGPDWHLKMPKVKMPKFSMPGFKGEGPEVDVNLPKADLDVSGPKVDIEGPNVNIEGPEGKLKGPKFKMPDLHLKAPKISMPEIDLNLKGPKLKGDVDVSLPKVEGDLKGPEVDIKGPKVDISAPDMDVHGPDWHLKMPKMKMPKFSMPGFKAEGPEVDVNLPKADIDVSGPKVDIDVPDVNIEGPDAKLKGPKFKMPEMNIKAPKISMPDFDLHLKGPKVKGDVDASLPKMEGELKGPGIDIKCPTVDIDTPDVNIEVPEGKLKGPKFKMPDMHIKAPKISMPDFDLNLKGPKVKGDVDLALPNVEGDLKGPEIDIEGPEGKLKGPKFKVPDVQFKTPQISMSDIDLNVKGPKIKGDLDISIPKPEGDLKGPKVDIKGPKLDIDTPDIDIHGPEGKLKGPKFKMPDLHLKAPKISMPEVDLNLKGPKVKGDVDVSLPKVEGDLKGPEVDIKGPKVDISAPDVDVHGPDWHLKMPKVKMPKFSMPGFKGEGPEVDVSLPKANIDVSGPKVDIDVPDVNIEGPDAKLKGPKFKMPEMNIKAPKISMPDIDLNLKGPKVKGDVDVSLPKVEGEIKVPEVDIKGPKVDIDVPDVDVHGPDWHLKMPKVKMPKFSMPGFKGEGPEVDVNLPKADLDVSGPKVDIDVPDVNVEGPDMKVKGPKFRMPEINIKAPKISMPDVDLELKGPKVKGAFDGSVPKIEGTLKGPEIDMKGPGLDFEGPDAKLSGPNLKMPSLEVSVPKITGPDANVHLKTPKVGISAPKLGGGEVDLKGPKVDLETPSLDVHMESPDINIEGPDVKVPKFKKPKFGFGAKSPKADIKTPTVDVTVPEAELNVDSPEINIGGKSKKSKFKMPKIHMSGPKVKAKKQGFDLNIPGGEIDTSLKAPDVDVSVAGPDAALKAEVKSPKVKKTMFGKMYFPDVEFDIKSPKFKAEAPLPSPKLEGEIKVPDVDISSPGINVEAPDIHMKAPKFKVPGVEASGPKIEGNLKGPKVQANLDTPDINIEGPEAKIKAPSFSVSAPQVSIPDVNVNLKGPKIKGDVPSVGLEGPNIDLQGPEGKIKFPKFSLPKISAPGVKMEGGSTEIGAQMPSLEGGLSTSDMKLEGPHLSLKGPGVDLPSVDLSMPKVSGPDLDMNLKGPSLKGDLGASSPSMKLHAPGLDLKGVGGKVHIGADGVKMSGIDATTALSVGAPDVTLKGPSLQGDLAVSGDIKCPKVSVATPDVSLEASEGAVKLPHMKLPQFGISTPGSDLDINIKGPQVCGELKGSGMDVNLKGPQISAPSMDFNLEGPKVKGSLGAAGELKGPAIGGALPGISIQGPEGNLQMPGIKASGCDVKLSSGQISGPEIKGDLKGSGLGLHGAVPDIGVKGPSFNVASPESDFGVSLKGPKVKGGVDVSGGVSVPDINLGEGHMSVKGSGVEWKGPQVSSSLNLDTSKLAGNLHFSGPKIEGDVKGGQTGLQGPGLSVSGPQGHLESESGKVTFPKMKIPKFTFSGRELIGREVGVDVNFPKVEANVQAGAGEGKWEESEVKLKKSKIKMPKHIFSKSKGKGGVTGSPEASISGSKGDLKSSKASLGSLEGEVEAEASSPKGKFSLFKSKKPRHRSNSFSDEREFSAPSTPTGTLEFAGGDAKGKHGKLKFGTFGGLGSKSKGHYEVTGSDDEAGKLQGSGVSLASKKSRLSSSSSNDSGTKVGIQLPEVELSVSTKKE
UniProt P62715: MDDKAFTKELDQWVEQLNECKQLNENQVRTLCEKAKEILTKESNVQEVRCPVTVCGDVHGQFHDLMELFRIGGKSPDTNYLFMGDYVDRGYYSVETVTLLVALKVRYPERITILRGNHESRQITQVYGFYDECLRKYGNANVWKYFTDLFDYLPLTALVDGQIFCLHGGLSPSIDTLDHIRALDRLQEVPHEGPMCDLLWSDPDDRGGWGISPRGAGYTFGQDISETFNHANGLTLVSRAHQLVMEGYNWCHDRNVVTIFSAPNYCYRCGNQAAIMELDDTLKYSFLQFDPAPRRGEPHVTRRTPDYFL

Row | Substance | binding
1 | AHNAK (from UniProt E9Q616 1-5656) | binds
2 | PPP2CB, beta isoform of the catalytic subunit of PP2A (from UniProt P62715 1-309) (enzyme) | binds

Source: PMC11909883
